The results in this text go back to PubChem BioAssay AID248 (DTP/NCI, 2004).

In this experiment the test system is L1210 leukemia ip in BDF1 mice, survival T/C. Kind of experiment: NCI In Vivo Anticancer Drug Screen. Data for tumor model L1210 Leukemia (intraperitoneal) in B6D2F1 (BDF1) mice. The conditions noted are these: T/C endpoint: mean survival time, vehicle: saline, higher T/C = longer survival.

The list is a part of this screen's results and no random one: it gathers tests that were run many times, whatever their T/C, doses with no T/C, and many T/C values between a quarter and a half above the control. Other doses and runs of a compound stand elsewhere. T/C: endpoint of the treated group in % of that of the vehicle group. Some doses have a count of surviving animals in place of a T/C: the source holds a T/C of zero for them, seemingly a mark for toxic or unscored doses. Some survivor counts are full or nearly so, which does not show that the dose was tolerated: survival well below the control is almost never listed, so the zero probably covers shortened survival too. Survivors were counted at the toxicity check, usually on the fifth day, unless a day is given; later deaths do not show. Schedule codes are those of the source, taken here to give the interval after Q, in days (D) or hours (H), and the number of doses after X. Some schedules carry Z or #; the key to these is not given. Where survival is the endpoint, the PubChem record calls one and a half times the control and up active, and a quarter to a half above the control has no call in these data; cut-offs in other NCI protocols can differ. Counts like (3×) stand for listed records that agree. Some T/C values are followed by the survivors on the day toxicity was checked, most often the fifth; without a count, all were alive then. Some entries hold several experiments; the results are listed from low to high.

Regarding `CCOC(=O)C(N)Cc1ccc(N(CCCl)CCCl)cc1` (stereo not drawn), the T/C is 130 % of control (dose: 0.25 mg/kg/injection, schedule: Q01DX Z (ip)); 133 % of control (dose: 0.5 mg/kg/injection, schedule: Q01DX Z (ip)); 140 % of control (dose: 1.0 mg/kg/injection, schedule: Q01DX Z (ip)); 127 % of control (dose: 1.0 mg/kg/injection, schedule: Q01DX Z (oral)); 130 and 133 % of control [5 of 6 alive] (dose: 2.0 mg/kg/injection, schedule: Q01DX Z (oral)); 147 % of control (dose: 3.0 mg/kg/injection, schedule: Q01DX Z (ip)). Moreover, the T/C (dose: 4.0 mg/kg/injection, schedule: Q01DX Z (ip)) is 141 % of control; the T/C (dose: 8.0 mg/kg/injection, schedule: Q01DX Z (oral)) is 138 % of control (2×); the T/C (dose: 13.5 mg/kg/injection, schedule: Q01DX Z (ip)) was 135 and 140 % of control. The survivor count reads like this: (dose: 30.0 mg/kg/injection, schedule: Q01DX Z (ip)) 6 of 6; (dose: 32.0 mg/kg/injection, schedule: Q01DX Z (oral)) 6 of 6; (dose: 64.0 mg/kg/injection, schedule: Q01DX Z (oral)) 2 of 6.
As to `O=S(=O)(O)c1cc(O)c2cc(Nc3ccccc3)ccc2c1`, the survivor count (dose: 400.0 mg/kg/injection, schedule: Q04DX003 (ip)) is listed as 3 of 6.
